Data from patent US20250115663A1.
These are yes or no findings as the source states them, for the method shown. Binding can be weak; no strength is given.

Biological target: kappa-sCD40(1-94)-Flag mutant fragment B (multiple mutations of residues 13-15)
Test: ELISA, mutated kappa-sCD40(1-94)-Flag captured on anti-Flag

B1: anti-CD40 human monoclonal antibody 3C3 (antibody, human IgG2, kappa, V domains shown)
VH: QVQLVESGGGVVQPGRSLRLSCAGSGFIFSRYGMYWVRQAPGKGLEWVAVIWYDGSYKYYADSVKGRFTISRDNSKNTLYLQMNSLRAEDTAVYYCARESPWYYFDYWGQGTLVTVSS
VL: DIQMTQSPSSLSASVGDRVTITCRASQGISNYLAWYQQKPGKVPKLLIYAASTLQSGVPSRFSGSGSGTDFTLTISSLQPEDVATYYCQKYKSAPFTFGPGTKVDIKR
binding: binds
